No constants are given. Whether binding was seen depends on the method and setting. In cells and extracts the contact can be indirect. A yes stands for co-enrichment or nearness to the bait. Other partners may have been found. For some assays here: A no says only that the protein was not detected with the bait.

By UniProt entry, the sequences of proteins in these tests, tags left out. Where a name states a change or a piece, a line headed by the entry shows the natural chain unless it says otherwise.
UniProt Q1D3Y4: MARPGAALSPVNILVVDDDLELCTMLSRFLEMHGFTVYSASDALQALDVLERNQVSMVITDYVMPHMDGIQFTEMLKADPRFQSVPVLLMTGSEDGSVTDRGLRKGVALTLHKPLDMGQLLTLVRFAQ

This passage reports binding results from publication PMC9040617.

The target of experiment [1] is MBP-MXAN_4468 (Myxococcus xanthus DK1622) (UniProt Q1D3Y4). Description: affinity purification with mass spectrometry; purified MBP-tagged MXAN_4468 (wild type, D61V or D61F) plus MBP filler mixed with the supernatant of sonicated DK1622 cells, 4°C for 4 h; washed on the column, eluted with 10 mM maltose; eluate identified by mass spectrometry; MBP plus filler and filler alone as controls; only the target purified.

Experiment [2] deals with 4468-D61V-MBP (Myxococcus xanthus DK1622) (UniProt Q1D3Y4). Described as above.

B1: transcriptional regulator (MXAN_1757) (protein, UniProt Q1DBG6 1-314)
chain: MQVLIVNTSLFPHLQTFLAVARTRSFSAAARDLGISRSAVSQSVRLLEGKLRVPLVARTTRSVSLTEAGRRLVESAGPAVTQVQAALTQASAKPGEVVGRVRLTVPRAAFHFVIEPVLPKFRERHPRIEVDLVFEDRMVDLVGEGFDAGVRLSEYVERDMVSVRLTDAFRFIVVGSPTYLGRHGTPGRPEDLLEHECLTFRSSTTGSLYAWEFERGRRTWRVPVRGSLVVNDGLICIRWAEQGLGLAYVMEPLVGEQLRKGSLQRVLEPYAATVPGFFLYYPSRAQSSAPLRLFVETVRELTRKPPVATKQLGP
As to B1, in experiment [1], the binding entry was “binds”.

B2: sigma 54 transcriptional regulator (MXAN_0907) (protein, UniProt Q1DDV5 1-607)
chain: MAHSQPSARDTRPLGSAPESSDSGASYLLVLEGDSTSRFALPAEGVVLVGRDEQADLCLRDDSVSRRHARLVLTEEGARLVDLGSHNGTTLNGRPVDTAQPLLSGDVVSFGAVVAVVRTRARAAPAHAPLQAERLMARLREEAERALRYGRPLTALVLALPQQGCVGHEAAEALLAAEAGPAEAAGWLDSSHLLWMMPEVSGEPGEDGLGERVGALLAACPQGRLGIATCPSDGCDAESLVAAARAAARTAVSGAWAPAAEGITRLTLADRTVLVADPAMAQLFTLLRRLAASELPVLVCGETGVGKENAAFAVHHWSPRSDKPFIAINCAALPEGLVESELFGHERGAFTGANTTRVGLLESAQGGTVFLDEVGELPPSAQAKLLRALEVRRITRVGDVRERPIDLRVVAATHRDLEAEVAAGRFREDLYFRLGAATVLLPPLRERPREVPLLARDFLARACQSLGREEMELSAGTLYALSRHAWPGNVRELRNLMDYAAAAVPENVVEPHHLPSRLQPRGASAPAQDLGPPPAVAERVSPQKTRVPLAQEIRDLERRRMQEALDEAEGVQTRAAAMIGMPIRTFSFKLKQLGLQPRTSRKGPPIG
With B2, the binding result in experiment [1] is reported as “binds”.

B3: HrcA (MXAN_6726) (protein, UniProt Q1CXN0 1-343)
chain: MSEELGEREKEVLRAVVQEYISTGGPVGSQQLTRRPGFEVSSATMRNVLADLEELGFLEKPHTSAGRVPTDQGYRFYVDTLVKLKDPTPRDRELIHAGLAHEADLAEMLGEASRILHSLTRHAGVVVAPRPESAVFRRIEFVRLREDRVLAILVGQSGQVHNKAITVEFPITSDELLKASNYLSELLREVPLESARERIRAEMDQEQALYNALTAKALKLGAAATDLASTERMLIQGTGSFFEQPEFADVERMRALFRALDEKHKLLSLLDRVQVANEMQIFIGAESDFSAAGDVTVIASPYGNQEQVLGTVGVIGPTRMDYRRVIPLVNFTAQVLSRVLEKV
As for B3, the binding entry in experiment [1] was “binds”; in experiment [2], “no binding”.

B4: RNA polymerase sigma 70 factor (MXAN_7454) (protein, UniProt Q1CVL4 1-212)
chain: MVSSIFPAPDVGHFVDPVGPSRRGPLSDDTSAETGPWLARFHAGDARVLNACYRDHFDTVYRAAVRVLPAVDAETVVHDVFLRLVSDEAARRSFQGGSLAGWLHTLSHNLAVDRVRRQRRESDALAQLAVESSASEEPTPPEPGLDASFLLERFRQESLPPKWAPVFEARFVLQLSQREAAAALRMRRTTLAYQELRVRQLLKKFLLTPEAR
In the case of B4, the binding result in experiment [1] is “binds”.
